Results reported in US20040171823A1, “Polynucleotides and polypeptides associated with the NF-kappaB pathway” (priority 2003, published 2004).
For at least one compound, name, drawing or mass did not settle the structure.

Test system: NF-κB activation pathway
Assay: Real-time PCR (TaqMan/SYBR Green) of target gene mRNA in LPS-stimulated THP-1 cells with NF-κB pathway inhibitors
Format: cell-based, human
Conditions: dexamethasone 100 nM
Protocol: Poly (A)^+ mRNA was isolated from THP-1 cells that were either unstimulated, or stimulated with 100 ng/ml LPS for two hours in the presence and absence of BMS-205820 (2 uM) using the Fast Track isolation kit (Invitrogen, Carlsbad, Calif.) according to manufacturer's instructions. RNA quality and quantity were evaluated using UV spectrometry and capillary electrophoresis with the RNA 6000 Assay 10 (Agilent). First-strand cDNA was synthesized using the SuperScript™ First-Strand Synthesis System for RT-PCR (Invitrogen) according to manufacturer's instructions.
PCR reactions were performed in a total volume of 40 ul containing master mix (SYBR Green I dye, 50 mM Tris-Cl pH 8.3, 75 mM KCl, DMSO, Rox reference dye, 5 mM MgCl2, 2 mM dNTP, 1 unit Platinum Taq High Fidelity enzyme), 0.5 uM 15 each of forward and reverse gene-specific primers, and cDNA (8 ul of a 1:36 dilution of the first strand reaction mix). For tissue expression analyses, PCR reactions included 2 ul of cDNA derived from the Human Multiple Tissue cDNA panel I and Human Immune System MTC Panel (Clontech, Palo Alto, Calif.). The amplification program consisted of a 10 minute incubation at 95° C., followed by 40 cycles of incubations at 95° C. for 15 seconds, 60° C. for 1 minute. The amplification was followed by melting curve analysis at 60° C. to determine the specificity of the amplification reaction. The data were analyzed using the TaqMan 5700 software with the threshold value set to 0.5. The message levels of GAPDH were used to normalize the amounts of cDNA for each reaction.
PolyA+ mRNA was isolated from THP1 cells that were either unstimulated, stimulated with LPS for 2 hours, or stimulated with LPS for 2 hours in the presence of the peptide BMS-205820 (2 μM). In some experiments, THP-1 cells were stimulated with LPS in the presence of the glucocorticoid dexamethasone (100 nM), and the IKK-2 inhibitor, BMS-345541 (10 μM). RNA quality and quantity were evaluated using UV spectrometry and capillary electrophoresis with the RNA 6000 Assay by Agilent. Five-hundred nanograms of polyA RNA was used for first-strand cDNA synthesis using the SuperScript™ First-Strand Synthesis System for RT-PCR (Life Technologies) following the manufacturer's instructions with 250 ng of random hexamers.
PCR Reactions were performed in a total volume of 40 μl. The master mix contained SYBR Green I Dye, 50 mM Tris-HCl pH8.3, 75 mM KCl, DMSO, Rox reference dye, 5 mM MgCl2, 2 mM dNTP, Platinum Taq High Fidelity (1U/reaction), and 0.5 μM of each primer. […]
A relative value for the initial target concentration in each reaction was determined using the TaqMan 5700 software. […] The message levels of GAPDH were determined for each cDNA sample and were used to normalize all other genes tested from the same cDNA sample.

C[C@@H]1C[C@H]2[C@@H]3CCC4=CC(=O)C=C[C@]4(C)[C@@]3(F)[C@@H](O)C[C@]2(C)[C@@]1(O)C(=O)CO [dexamethasone]
BCL-6 expression (mRNA) at the 2 hour time point (THP-1 cells stimulated with LPS, 2 hour, versus LPS stimulated cells alone, FIG. 5C): significantly upregulated | Cytokine-Inducible Kinase (CNK) expression (mRNA) (THP-1 cells stimulated with LPS, all time points, BMS-345541 10 μM, FIG. 5A): induced CNK mRNA levels above that detected with LPS stimulation alone | BCL-2 Like 11 expression (mRNA) (THP-1 cells stimulated with LPS, each time point, BMS-345541 10 μM, FIG. 5B): significantly increased | Stat1 expression (mRNA) (THP-1 cells, 8 hours post LPS stimulation, BMS-345541 10 μM, FIG. 5E): significantly inhibited
